Data taken from the M2OR odorant receptor database.
Positions count from the first letter of the chain named. The entries are a selection whose mix differs from that of the whole data set. Calls are pooled over several reports, among them a noisy single-well screen. The list shows a part of the results.

Amino acid sequences for entries named in this document (tags omitted). A change or cut given only in a name is not applied to a line headed by its entry.
UniProt Q8NGZ5: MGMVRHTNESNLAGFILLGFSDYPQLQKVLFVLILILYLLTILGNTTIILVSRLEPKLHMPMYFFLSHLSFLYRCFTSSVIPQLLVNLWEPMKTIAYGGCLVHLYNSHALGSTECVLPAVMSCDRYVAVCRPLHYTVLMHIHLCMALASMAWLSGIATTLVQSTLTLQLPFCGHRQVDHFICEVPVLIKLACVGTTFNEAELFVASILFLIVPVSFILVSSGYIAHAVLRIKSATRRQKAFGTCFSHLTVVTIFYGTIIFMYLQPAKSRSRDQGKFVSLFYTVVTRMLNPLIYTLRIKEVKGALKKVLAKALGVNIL

Columns and labels:
Settings in all cases: stereoisomer not certain
OR2C3 = system: T1, OR2C3
T1 sequence (whole entry): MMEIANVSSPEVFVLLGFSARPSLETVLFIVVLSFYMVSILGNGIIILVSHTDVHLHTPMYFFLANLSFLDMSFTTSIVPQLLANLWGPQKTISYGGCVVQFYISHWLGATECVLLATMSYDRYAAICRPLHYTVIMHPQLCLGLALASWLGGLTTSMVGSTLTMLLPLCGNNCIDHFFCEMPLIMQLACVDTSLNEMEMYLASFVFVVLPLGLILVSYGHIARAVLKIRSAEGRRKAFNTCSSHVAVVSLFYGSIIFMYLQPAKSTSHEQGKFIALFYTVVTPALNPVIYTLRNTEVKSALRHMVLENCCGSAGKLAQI
Summary of the method: (§1)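 Transient luciferase assays in mammalian cell lines were common, though methods varied by source. The values come from published papers and their supplementary material, with extra details from the original authors when needed. Responsive refers to a measured signal the original authors judged statistically different from baseline, and non-responsive (inactive) to the remainder.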

OR2D2 (Homo sapiens) = molecular target: T2, OR2D2 (Homo sapiens) (UniProt Q9H210)
T2 sequence (whole entry): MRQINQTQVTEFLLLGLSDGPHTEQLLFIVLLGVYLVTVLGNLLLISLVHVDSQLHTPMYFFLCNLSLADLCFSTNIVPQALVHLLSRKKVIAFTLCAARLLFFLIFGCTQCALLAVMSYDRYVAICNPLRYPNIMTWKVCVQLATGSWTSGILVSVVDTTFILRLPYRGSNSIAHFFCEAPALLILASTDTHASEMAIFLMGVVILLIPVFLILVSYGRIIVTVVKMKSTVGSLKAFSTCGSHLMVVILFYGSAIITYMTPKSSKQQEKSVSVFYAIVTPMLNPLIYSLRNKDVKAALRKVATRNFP
Summary of the method: as §1

OR2D3 = system: T3, OR2D3
T3 sequence (whole entry): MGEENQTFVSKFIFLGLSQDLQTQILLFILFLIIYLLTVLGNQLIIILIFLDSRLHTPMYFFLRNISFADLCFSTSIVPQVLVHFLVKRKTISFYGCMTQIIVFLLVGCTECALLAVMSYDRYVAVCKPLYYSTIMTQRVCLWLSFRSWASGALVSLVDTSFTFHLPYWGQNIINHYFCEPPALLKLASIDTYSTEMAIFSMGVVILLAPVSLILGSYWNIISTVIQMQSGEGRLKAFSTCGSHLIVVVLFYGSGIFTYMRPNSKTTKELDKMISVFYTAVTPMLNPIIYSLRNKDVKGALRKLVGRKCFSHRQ
Summary of the method: as §1

OR2F1 (Homo sapiens) = molecular target: T4, OR2F1 (Homo sapiens) (UniProt Q13607)
T4 sequence (whole entry): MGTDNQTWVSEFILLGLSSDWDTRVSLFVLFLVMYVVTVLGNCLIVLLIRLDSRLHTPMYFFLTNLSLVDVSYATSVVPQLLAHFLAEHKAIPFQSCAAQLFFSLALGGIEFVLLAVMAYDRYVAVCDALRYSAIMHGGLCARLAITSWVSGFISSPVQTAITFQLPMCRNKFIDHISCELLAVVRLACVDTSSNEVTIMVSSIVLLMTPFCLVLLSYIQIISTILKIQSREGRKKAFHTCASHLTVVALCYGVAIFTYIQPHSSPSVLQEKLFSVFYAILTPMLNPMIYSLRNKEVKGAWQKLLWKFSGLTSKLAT
Summary of the method: as §1

OR2F2 = system: T5, OR2F2
T5 sequence (whole entry): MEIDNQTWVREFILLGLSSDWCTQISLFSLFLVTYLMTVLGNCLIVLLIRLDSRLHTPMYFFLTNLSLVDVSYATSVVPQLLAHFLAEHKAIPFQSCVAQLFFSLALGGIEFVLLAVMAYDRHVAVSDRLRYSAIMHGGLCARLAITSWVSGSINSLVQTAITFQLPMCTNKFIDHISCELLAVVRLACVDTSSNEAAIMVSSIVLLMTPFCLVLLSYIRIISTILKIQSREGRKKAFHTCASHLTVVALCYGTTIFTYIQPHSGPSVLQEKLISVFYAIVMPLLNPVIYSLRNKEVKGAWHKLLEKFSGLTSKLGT
Summary of the method: as §1

OR2G2 [1] = system: T6, OR2G2
T6 sequence (whole entry): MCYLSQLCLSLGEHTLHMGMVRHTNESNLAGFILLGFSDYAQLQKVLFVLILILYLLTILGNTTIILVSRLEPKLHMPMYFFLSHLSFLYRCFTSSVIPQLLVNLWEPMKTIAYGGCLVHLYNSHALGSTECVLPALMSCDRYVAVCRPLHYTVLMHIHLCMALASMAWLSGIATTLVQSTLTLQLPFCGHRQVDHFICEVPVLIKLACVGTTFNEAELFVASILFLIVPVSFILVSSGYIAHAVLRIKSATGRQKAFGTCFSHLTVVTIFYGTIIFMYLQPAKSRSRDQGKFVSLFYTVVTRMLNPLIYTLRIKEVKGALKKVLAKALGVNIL
Summary of the method: as §1

OR2G2 [2] = system: T7, OR2G2; remark: listed apart in the source
T7 sequence (whole entry): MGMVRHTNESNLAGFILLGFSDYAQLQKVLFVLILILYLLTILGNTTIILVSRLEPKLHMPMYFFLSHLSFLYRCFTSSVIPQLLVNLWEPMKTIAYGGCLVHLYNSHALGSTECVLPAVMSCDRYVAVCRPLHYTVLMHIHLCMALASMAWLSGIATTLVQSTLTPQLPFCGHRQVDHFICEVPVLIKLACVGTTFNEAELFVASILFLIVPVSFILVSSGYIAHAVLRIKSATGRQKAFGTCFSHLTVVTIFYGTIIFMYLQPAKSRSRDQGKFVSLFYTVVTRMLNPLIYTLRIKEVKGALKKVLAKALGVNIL
Summary of the method: as §1

OR2G3 (Homo sapiens) = molecular target: T8, OR2G3 (Homo sapiens) (UniProt Q8NGZ4)
T8 sequence (whole entry): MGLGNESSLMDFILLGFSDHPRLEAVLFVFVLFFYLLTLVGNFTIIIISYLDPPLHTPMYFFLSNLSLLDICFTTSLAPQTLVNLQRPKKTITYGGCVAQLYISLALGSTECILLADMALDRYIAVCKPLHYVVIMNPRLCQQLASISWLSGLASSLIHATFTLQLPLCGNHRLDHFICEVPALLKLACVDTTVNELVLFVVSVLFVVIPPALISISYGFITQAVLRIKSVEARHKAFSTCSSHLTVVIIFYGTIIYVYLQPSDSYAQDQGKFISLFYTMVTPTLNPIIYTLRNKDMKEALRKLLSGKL
Summary of the method: as §1

OR2G3 = system: T9, OR2G3
T9 sequence (whole entry): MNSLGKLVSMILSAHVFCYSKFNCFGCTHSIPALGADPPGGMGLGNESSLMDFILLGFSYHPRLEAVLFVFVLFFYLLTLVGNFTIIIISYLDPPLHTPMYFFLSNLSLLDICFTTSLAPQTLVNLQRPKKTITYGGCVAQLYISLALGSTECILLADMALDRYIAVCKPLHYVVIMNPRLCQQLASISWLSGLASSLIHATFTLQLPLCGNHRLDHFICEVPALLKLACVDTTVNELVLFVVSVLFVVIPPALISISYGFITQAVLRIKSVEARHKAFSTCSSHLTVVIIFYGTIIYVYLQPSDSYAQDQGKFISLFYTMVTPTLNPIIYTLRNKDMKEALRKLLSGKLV
Summary of the method: as §1

OR2G6 (Homo sapiens) = molecular target: T10, OR2G6 (Homo sapiens) (UniProt Q5TZ20)
T10 sequence (whole entry): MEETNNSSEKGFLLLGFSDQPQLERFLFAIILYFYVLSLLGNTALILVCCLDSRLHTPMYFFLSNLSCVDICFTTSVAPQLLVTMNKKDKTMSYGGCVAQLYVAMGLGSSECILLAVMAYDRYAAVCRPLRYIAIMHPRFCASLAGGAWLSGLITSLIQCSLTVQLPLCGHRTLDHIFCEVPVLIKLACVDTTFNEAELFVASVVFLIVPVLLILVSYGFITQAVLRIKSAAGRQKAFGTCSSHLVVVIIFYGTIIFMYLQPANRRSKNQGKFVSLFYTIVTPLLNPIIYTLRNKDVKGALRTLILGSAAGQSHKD
Summary of the method: as §1

OR2H1 (Homo sapiens) = molecular target: T11, OR2H1 (Homo sapiens) (UniProt Q9GZK4)
T11 sequence (whole entry): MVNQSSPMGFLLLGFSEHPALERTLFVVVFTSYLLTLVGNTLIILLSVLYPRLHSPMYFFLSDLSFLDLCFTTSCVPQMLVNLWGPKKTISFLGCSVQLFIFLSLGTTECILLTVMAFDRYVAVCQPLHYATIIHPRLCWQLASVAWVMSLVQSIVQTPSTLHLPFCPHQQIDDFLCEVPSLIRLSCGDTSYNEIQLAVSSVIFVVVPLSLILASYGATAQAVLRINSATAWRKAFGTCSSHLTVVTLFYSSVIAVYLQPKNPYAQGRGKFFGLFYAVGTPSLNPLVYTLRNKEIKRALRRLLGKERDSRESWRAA
Summary of the method: as §1

OR2H2 (Homo sapiens) = molecular target: T12, OR2H2 (Homo sapiens) (UniProt O95918)
T12 sequence (whole entry): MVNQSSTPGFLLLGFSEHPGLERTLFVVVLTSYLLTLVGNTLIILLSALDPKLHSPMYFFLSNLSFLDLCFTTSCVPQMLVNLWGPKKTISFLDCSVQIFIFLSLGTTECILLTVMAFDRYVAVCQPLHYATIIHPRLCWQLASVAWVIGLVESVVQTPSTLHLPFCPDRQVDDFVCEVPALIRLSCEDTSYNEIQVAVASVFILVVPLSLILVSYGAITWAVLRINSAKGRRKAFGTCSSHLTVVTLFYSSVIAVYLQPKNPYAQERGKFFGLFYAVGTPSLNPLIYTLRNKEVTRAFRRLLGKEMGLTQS
Summary of the method: as §1

OR2H2 = system: T13, OR2H2
T13 sequence (whole entry): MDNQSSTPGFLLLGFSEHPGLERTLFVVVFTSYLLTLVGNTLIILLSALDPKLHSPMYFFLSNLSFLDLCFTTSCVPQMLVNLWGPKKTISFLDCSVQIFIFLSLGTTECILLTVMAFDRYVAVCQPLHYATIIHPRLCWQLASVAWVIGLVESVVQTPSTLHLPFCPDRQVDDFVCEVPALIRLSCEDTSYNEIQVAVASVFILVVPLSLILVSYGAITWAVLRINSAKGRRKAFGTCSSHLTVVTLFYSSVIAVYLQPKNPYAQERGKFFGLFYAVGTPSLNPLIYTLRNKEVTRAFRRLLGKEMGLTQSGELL
Summary of the method: as §1

OR2G2 (Homo sapiens) = molecular target: T14, OR2G2 (Homo sapiens) (UniProt Q8NGZ5)
T14 sequence (whole entry): T7 sequence (whole entry) with A24P, P167L, G236R
Summary of the method: as §1
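Note: active if original authors judged signal statistically different from baseline.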

| Compound | odorant receptor agonist call (OR2C3) | odorant receptor agonist call (OR2D2 (Homo sapiens)) | odorant receptor agonist call (OR2D3) | odorant receptor agonist call (OR2F1 (Homo sapiens)) | odorant receptor agonist call (OR2F2) | odorant receptor agonist call (OR2G2 [1]) | odorant receptor agonist call (OR2G2 [2]) | odorant receptor agonist call (OR2G3 (Homo sapiens)) | odorant receptor agonist call (OR2G3) | odorant receptor agonist call (OR2G6 (Homo sapiens)) | odorant receptor agonist call (OR2H1 (Homo sapiens)) | odorant receptor agonist call (OR2H2 (Homo sapiens)) | odorant receptor agonist call (OR2H2) | odorant receptor agonist call (OR2G2 (Homo sapiens)) |
| --- | --- | --- | --- | --- | --- | --- | --- | --- | --- | --- | --- | --- | --- | --- |
| CCCCCCCCCC=O | inactive | inactive | inactive | inactive | inactive | inactive | inactive | inactive | inactive | inactive | inactive | active | inactive |  |
| CC(C)(O)CCCC1=CCC(C=O)CC1 (stereo unspecified) | inactive | inactive |  |  |  |  |  |  |  |  |  |  |  |  |
| CCCCCCCCCCC=O | inactive | inactive | inactive | inactive | inactive | inactive | inactive | inactive | inactive | inactive | inactive | active | inactive |  |
| O=C1CCCCCCCCCCCCCCO1 | inactive | inactive | inactive | inactive | inactive | inactive | inactive | inactive | inactive | inactive | inactive |  | inactive | inactive |
